CoaBC: 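Enzyme assay of CoaBC with a phosphate dye (Biomol Green) read at 650 nm. Target: Coenzyme A biosynthesis protein CoaBC, Mycobacterium tuberculosis (UniProt P9WNZ1). Compounds at 30 µM. Higher reads as stronger inhibition, judged from the few compounds that gave an IC50. Most strong results did not repeat in a second test. Of about 67,000 compounds tested this way, about 40 (0.06%) reached 50% or more in at least one test.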
Toxoplasma: 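Assay of Toxoplasma gondii numbers, read through their beta-galactosidase reporter with a colour substrate. Compounds at 10 µM. Higher reads as fewer parasites (inferred from which compounds were picked for retests). Size under these conditions: about 67,000 compounds, about 260 of them at 50% or above in at least one test.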
Leishmania in macrophages: 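Cell assay of Leishmania donovani living inside macrophages; the read-out is not stated. Tested at 30 µM. Direction is inferred from retests: higher values go with stronger inhibition. About 69,000 compounds were tested under these conditions; 1.5% (about 1,000) showed 50% or more at least once.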
MtTrpRS: 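Tryptophan-tRNA ligase, Mycobacterium tuberculosis (UniProt P9WFT3). Enzyme assay of tryptophanyl-tRNA synthetase; the read-out is not stated. Compounds at 10 µM. Higher most likely means stronger inhibition; the record gives no direction and few retests gave an IC50. Size under these conditions: about 65,000 compounds, about 64 of them at 50% or above in at least one test.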
LiHisRS: 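Enzyme assay of histidyl-tRNA synthetase; the read-out is not stated. Target: Histidine-tRNA ligase, Leishmania infantum (UniProt A4I591). Concentration: 30 µM. Direction is inferred from retests: higher values go with stronger inhibition. The assay is labelled LdHisRS but filed under L. infantum. Size under these conditions: about 69,000 compounds, about 410 of them at 50% or above in at least one test.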

Protein sequences, listed by entry. Tags and fused reporters are not part of them. Residues count along the entry.
UniProt P9WNZ1, whole entry: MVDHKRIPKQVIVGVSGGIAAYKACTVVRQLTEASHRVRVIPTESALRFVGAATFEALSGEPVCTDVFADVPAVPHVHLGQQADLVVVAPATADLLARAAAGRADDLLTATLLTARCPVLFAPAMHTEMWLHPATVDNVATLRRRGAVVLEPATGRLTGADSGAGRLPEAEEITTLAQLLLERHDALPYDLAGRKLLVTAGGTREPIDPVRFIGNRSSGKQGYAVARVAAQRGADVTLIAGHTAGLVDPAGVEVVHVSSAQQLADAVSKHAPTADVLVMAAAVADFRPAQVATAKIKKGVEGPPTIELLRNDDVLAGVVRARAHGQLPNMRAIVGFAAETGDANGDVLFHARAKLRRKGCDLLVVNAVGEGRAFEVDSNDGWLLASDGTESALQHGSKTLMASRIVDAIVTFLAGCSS
UniProt P9WFT3, whole entry: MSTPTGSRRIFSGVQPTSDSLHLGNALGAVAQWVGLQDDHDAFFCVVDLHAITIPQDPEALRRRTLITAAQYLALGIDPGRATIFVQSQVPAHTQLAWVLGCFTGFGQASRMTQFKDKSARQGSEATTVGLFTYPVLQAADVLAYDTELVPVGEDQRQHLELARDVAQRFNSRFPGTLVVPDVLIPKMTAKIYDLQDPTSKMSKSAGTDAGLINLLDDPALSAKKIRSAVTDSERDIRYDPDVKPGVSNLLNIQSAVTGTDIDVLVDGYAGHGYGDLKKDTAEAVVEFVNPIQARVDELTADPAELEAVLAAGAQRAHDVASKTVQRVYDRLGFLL
UniProt A4I591, 1-473: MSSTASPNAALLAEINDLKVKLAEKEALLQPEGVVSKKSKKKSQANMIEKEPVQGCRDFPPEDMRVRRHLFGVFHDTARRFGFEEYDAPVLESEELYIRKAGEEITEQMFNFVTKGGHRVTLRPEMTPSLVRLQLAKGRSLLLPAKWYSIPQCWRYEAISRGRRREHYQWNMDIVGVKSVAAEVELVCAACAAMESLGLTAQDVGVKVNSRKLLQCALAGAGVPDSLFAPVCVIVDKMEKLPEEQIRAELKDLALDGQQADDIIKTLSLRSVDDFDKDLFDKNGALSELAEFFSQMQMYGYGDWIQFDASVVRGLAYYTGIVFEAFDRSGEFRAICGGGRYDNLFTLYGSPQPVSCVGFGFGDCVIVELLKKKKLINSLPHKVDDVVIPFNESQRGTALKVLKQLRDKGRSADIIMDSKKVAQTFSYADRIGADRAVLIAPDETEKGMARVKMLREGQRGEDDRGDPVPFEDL

Results are given as percent effect.
The record does not define 0% and 100%; most values in the screen are far below 50% and negative numbers occur (in some assays of this library far below -100).
The compounds are a random part of those screened.
Two or more numbers in one place are separate tests of the same structure; such repeats can differ widely.
A dash means the value is not listed here; it may have been measured.

| # | SMILES | CoaBC | Toxoplasma | Leishmania in macrophages | MtTrpRS | LiHisRS |
|---|---|---|---|---|---|---|
| 1 | `Cc1cc(N2CCC(NC(=O)C3CC3)CC2)nc(-c2ccncc2)n1` | 2.635% | -0.8899% | 7.799% | -1.101% | 40.62% |
| 2 | `CC(C)n1cnnc1CN(C)C(=O)c1cccnc1O` | 3.609% | 0.1725% | 7.799% | -4.774% | 13.27% |
| 3 | `CCc1cc(C(F)(F)F)n2nc(C3CCCN3C3CCSCC3)cc2n1.O=C(O)CC(O)(CC(=O)O)C(=O)O` (centres undefined) | - | 5.349% | 45.86% | - | - |
| 4 | `Cc1cccc(CN2CCC3(CCN(c4cccnc4)C3=O)C2)n1.O=C(O)C(F)(F)F.O=C(O)C(F)(F)F` (centres undefined) | - | 12.45% | 8.245% | - | - |
| 5 | `Cc1cc2nc(SCC(=O)N3CCCC3)n(C(C)C)c(=O)c2[nH]1` | 0.135% | -0.4525% | 12.23% | 6.674% | 28.57% |
| 6 | `CN(C)C(=O)N1CCN(c2ccc3ccc(C(=O)NC4CC4)cn23)CC1` | 2.703% | 16.68% | 11.6% | 14.39% | 25% |
| 7 | `CCc1c(C(=O)O)nnn1-c1cccc(C)c1C` | 9.356% | - | -17.83% | 2.251% | 13.04% |
| 8 | `CC(Cn1cccn1)NCC(=O)NCCc1cccs1` (centres undefined) | 4.7% | -1.042% | 27.58% | -1.49% | 10.34% |
| 9 | `OCCC1(NCc2ccc(-n3cccn3)cc2)CCOCC1` | 6.163% | -4.342% | 16.63% | 2.949% | 4% |
| 10 | `Cc1cc(-c2cnc(NCc3ccc4c(c3)OCO4)nc2C(C)C)on1` | -1.225% | -14.16% | -1.032% | - | 7.292% |
| 11 | `Cc1ccccc1C1CCN(C(=O)CCNC(=O)C(C)(C)C)C1` (centres undefined) | 3.182% | 5.081% | 26.77% | -4.312% | 13.7% |
| 12 | `Cc1noc(C)c1-c1ccc(C2CCCN2C(=O)c2cccnn2)nc1` (centres undefined) | 0.9732% | -8.906% | 9.968% & -4.789% | 11.65% | 7.368% |
| 13 | `CC(C)n1ccnc1C1CCN(Cc2ccc(Cl)s2)CC1` | -10.91% | 2.606% | 35.72% | 0.7457% | 27.36% |
| 14 | `CC(C)(CO)NCc1ccc(OCc2ccc3c(c2)OCCO3)cc1` | 0.8861% | - | - | -6.644% | 10% |
| 15 | `CCc1nc(C2CCCN(C(=O)c3ccccc3Cl)C2)no1` (centres undefined) | 4.847% | -8.328% | 22.77% | -1.358% | 16.36% |
| 16 | `Cc1cccc(CS(=O)(=O)CC(=O)NCCCOC(C)C)c1` | 2.651% | 6.458% | -9.471% | 0.07994% | 35.62% |
| 17 | `Cl.Cl.[H][C@@]12CC[C@H](COCc3csc(C)n3)O[C@]1([H])CCN2` | - | -2.819% | 27.54% | - | - |
| 18 | `Fc1ccccc1-c1cccc(C2CCCN(C3CCOCC3)C2)n1` (centres undefined) | -0.7398% | 27.87% | 19.42% | -2.639% | 8.451% |
| 19 | `O=S(=O)(NCc1ccnc(-n2ccnc2)c1)c1cncc(F)c1` | -2.675% | 7.229% | 18.98% | -2.556% | 9.326% |
| 20 | `O=C(C1CCSCC1)N1CC[C@H]2OCC[C@@]2(COCC2CC2)C1` | - | - | - | 2.616% | 6.838% |
| 21 | `CC(=O)NCCC1CCCCN1S(=O)(=O)c1cccc(C#N)c1` (centres undefined) | 2.796% | 17.85% | -5.718% | 2.22% | 13.33% |
| 22 | `CCN(Cc1ccco1)C(=O)C1=NN(c2ccccc2)C(=O)CN1` | -2.233% | 2.709% | 18.89% | 1.262% | 15% |
| 23 | `O=C(NCCCc1ccc(O)cc1)C1(O)Cc2ccccc2C1` | -15.29% | -5.014% | -18.41% | -10.88% | -6.667% |
| 24 | `Cn1nc(C(=O)NCCc2ccc(OC3CCCC3)cc2)ccc1=O` | -1.911% | 2.18% | -1.232% | -0.9202% | 8.29% |
| 25 | `CC(C)Cc1nc(-c2ccnc(N3CCNCC3)n2)no1.Cl.Cl` | - | 22.55% | 14.26% | - | - |
| 26 | `O=C(O)C(F)(F)F.O=C(O)C(F)(F)F.[H][C@@]12CCCO[C@]1([H])[C@@H](OCCN(C)C)CN2CC1CC1` | - | 14.85% | -2.45% | - | - |
| 27 | `O=c1n(Cc2cccc(C(F)(F)F)c2)nc2ncccn12` | -2.906% | 22.29% | -16.33% | -2.467% | 21.74% |
| 28 | `COC(=O)NCC(=O)NCC1(c2c(F)cccc2F)CCCC1` | 10.02% | 18.3% | -160% | 2.832% | 16.44% |
| 29 | `Cc1ccc2oc(C(=O)N3CCC(C(=O)N4CCCC4)CC3)cc2n1` | -6.218% | -12.56% | 27.55% | 0.2227% | 17.02% |
| 30 | `CCOCCCNC(=O)c1cccn1Cc1cccnc1` | 0.8065% | -3.54% | 11.06% | -1.351% | -2.632% |
| 31 | `[H][C@@]12CCN(S(C)(=O)=O)C[C@]1([H])[C@@H](CNC(=O)c1nccn1C)OC2` | - | 24.16% | 25.54% | - | - |
| 32 | `Cc1ccccc1C(=O)N1CCC2(CCCN2CCN(C)C)CC1` | 15.76% | - | - | 0% | -2.752% |
| 33 | `CCn1c(C)nnc1CN(C)C1CCN(CCS(=O)(=O)CC)C1` (centres undefined) | 8.094% | 2.478% | 17.74% | -5.517% | 13.27% |
| 34 | `CNC(=O)c1cc2c(nc1N(C)C)CCN(c1ncccn1)CC2` | 3.094% | - | - | - | 15.84% |
| 35 | `CCc1ncc(C(=O)N2CCOCC2CC(=O)c2ccccc2)s1` (centres undefined) | 1.467% | 3.663% | -6.031% | -3.054% | 4.839% |
| 36 | `[H][C@@]12CCCO[C@]1([H])[C@H](N(C)Cc1cccnc1)CN2c1ccccn1` | - | 2.033% | -0.6789% | - | - |
| 37 | `Cn1cnnc1CNC(=O)C1CCCN(Cc2cccc(F)c2)C1` (centres undefined) | 5.556% | 0.4823% | 5.218% | -4.447% | 11.61% |
| 38 | `NC(=O)NC(=O)CCN1CCCC1c1nc(C2CCCCC2)co1` (centres undefined) | -2.679% | 1.897% | -24.74% | -0.7224% | -3.125% |
| 39 | `CCCC1(CNCc2ncc[nH]2)CCC1` | -12.9% | 1.561% | 17.58% | -5.448% | 5.263% |
| 40 | `CC(C)NC(=O)N1CCN(Cc2ccccn2)CC2(CC(=O)N(C)C2)C1.O=C(O)C(F)(F)F.O=C(O)C(F)(F)F` (centres undefined) | - | 3.801% | 7.173% | - | - |
| 41 | `Cn1nc(COc2cccnc2)c2c1CCN(CC1CC1)C2.O=C(O)C(F)(F)F.O=C(O)C(F)(F)F` | - | -23.9% | 98.75% | - | - |

Once more, the final 4:

With NC(=O)NC(=O)CCN1CCCC1c1nc(C2CCCCC2)co1 (centres undefined) the screen gave CoaBC: -2.679%; Toxoplasma: 1.897%; Leishmania in macrophages: -24.74%; MtTrpRS: -0.7224%; LiHisRS: -3.125%.
With CCCC1(CNCc2ncc[nH]2)CCC1 the screen gave CoaBC: -12.9%; Toxoplasma: 1.561%; Leishmania in macrophages: 17.58%; MtTrpRS: -5.448%; LiHisRS: 5.263%.
With CC(C)NC(=O)N1CCN(Cc2ccccn2)CC2(CC(=O)N(C)C2)C1.O=C(O)C(F)(F)F.O=C(O)C(F)(F)F (centres undefined) the screen gave Toxoplasma: 3.801%; Leishmania in macrophages: 7.173%.
With Cn1nc(COc2cccnc2)c2c1CCN(CC1CC1)C2.O=C(O)C(F)(F)F.O=C(O)C(F)(F)F the screen gave Toxoplasma: -23.9%; Leishmania in macrophages: 98.75%.

The values are deposited in ChEMBL (CHEMBL3988442, “University of Dundee, Small-Polar-MMV Screening Library” (2021)).